{"source": "patent EP0555537B1", "about": "“Endothelin antagonists” (BANYU PHARMACEUTICAL CO., LTD., priority 1991, dated 1993)", "key": {"[1]": {"tested_on": "isolated rabbit pulmonary artery", "experiment": "Activities against endothelin-induced contraction of isolated rabbit pulmonary arteries"}, "[2]": {"tested_on": "isolated guinea pig bronchus", "experiment": "Activities against endothelin-induced contraction of isolated guinea pig bronchus", "conditions": "10 µM"}}, "note": "Not every detail of the peptide structures is certain; ends, links or a residue may be inferred.", "data": [{"smiles": "CCCC[C@@H](NC(=O)[C@@H](Cc1cn(C(=O)OC)c2ccccc12)NC(=O)[C@H](CC(C)C)NC(=O)Nc1ccccc1Cl)C(=O)O", "note": "[Compound 1]", "values": [{"measurement": "shift of the concentration-response curves of endothelin-3", "setting": "[1]; 0.1 to 10 µM, isolated rabbit pulmonary artery", "result": "remarkably shifted the concentration-response curves of endothelin-3 to the right"}, {"measurement": "PA2 value", "setting": "[1]; -log of the concentration necessary for shifting the concentration-response curve for endothelin-3 twice to the right, compound added 20 minutes before endothelin-3", "result": 6.7}, {"measurement": "shift of the concentration-response curves for endothelin-3", "setting": "[2]", "result": "remarkably shifted to concentration-response curves for endothelin-3 to the right"}]}]}
